In publication PMC12403285 one finds binding data, which are given here for one substance.

Sequences of proteins named here, by UniProt entry; tags and fusion partners are left off.
UniProt P19474: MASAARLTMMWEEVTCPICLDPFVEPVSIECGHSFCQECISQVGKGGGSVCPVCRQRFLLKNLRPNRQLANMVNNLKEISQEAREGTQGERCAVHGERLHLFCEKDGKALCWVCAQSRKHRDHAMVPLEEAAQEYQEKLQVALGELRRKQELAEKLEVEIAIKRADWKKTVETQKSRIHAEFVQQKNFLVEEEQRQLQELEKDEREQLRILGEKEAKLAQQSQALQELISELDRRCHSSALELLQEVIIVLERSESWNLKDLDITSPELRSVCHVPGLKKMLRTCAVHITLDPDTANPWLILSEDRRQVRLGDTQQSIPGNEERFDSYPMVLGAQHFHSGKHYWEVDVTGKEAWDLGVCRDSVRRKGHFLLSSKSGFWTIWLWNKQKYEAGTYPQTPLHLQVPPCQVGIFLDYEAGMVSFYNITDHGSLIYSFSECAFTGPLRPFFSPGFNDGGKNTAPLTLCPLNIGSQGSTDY

These are yes or no findings as the source states them, for the method shown. Binding seen in cells or lysates may run through a third protein. Here binding means that the protein was enriched with, or labelled near, the bait; the list need not be complete.

The assay deals with T1, Plakophilin-1 (human (endogenous in SK-MES-1)) (UniProt Q13835).
T1 sequence: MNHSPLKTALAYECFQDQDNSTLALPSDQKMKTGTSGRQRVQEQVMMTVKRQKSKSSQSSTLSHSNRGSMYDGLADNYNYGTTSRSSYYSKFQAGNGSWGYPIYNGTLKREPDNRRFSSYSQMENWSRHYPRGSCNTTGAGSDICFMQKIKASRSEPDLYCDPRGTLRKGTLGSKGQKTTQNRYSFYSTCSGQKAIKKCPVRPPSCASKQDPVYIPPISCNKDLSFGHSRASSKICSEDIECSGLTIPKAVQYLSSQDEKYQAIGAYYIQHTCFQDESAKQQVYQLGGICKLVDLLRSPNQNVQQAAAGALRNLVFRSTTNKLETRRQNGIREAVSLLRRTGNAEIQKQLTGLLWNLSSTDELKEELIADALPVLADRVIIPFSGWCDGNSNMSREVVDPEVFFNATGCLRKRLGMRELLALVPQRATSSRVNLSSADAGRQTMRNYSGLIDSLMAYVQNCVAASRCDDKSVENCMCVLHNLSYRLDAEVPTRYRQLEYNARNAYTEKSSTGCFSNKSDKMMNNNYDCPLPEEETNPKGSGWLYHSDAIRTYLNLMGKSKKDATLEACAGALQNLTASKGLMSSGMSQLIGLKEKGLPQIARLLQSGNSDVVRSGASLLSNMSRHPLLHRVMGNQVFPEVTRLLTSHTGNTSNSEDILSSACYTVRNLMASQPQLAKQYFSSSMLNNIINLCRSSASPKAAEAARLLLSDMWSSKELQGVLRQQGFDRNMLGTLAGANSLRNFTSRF
Kind of assay: affinity purification with mass spectrometry; immunoprecipitation of endogenous PKP1 in SK-MES-1 cells followed by MS/MS.

Turning to TRIM21 (from UniProt P19474 1-475), the binding entry is reported as “binds”.
